Laboratory results taken from PMC5982836.
Results are given in words; binding and its absence hold for the method and conditions named. In cells and extracts the contact can be indirect. A result given as binding can be weak or reduced; the word gives no strength. Tags and fused reporters may be left off the sequences shown. Each block holds one molecule with its values, some of them ahead of it.

Assays:
[1] = target: T1, Myc-Mre11 (Drosophila Mre11) (D. melanogaster) (UniProt Q9XYZ4); assay: co-IP; DART1-V5 and Myc-Mre11 or Myc-Mre11GARΔ co-transfected into S2 cells for 24 h at 25°; lysis in 20 mM Tris-HCl pH 7.5, 150 mM NaCl, 1% Triton X-100; IP with V5 or Myc antibody, Protein-G beads at 4°; washed 4 times with 50 mM HEPES pH 7.3, 250 mM NaCl, 0.1% NP40
T1 sequence: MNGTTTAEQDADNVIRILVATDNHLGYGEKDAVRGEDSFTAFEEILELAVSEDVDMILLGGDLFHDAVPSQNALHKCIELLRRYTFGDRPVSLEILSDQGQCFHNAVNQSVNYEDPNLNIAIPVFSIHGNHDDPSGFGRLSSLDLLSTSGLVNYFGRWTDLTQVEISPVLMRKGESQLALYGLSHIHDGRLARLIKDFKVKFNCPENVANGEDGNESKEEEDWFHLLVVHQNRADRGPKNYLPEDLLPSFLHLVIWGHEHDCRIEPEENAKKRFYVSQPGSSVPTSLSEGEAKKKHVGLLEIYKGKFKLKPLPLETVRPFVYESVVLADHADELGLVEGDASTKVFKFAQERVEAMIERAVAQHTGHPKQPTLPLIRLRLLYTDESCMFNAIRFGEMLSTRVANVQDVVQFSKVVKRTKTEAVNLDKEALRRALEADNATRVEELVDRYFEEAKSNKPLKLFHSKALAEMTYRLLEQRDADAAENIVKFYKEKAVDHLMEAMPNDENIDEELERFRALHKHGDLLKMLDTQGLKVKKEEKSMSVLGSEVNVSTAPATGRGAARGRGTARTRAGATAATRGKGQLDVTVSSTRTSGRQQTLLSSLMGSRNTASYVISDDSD

[2] = target: DART1-V5 (Drosophila arginine methyltransferase 1) (D. melanogaster); assay: as above

binding [1]: binds
Molecule: DART1-V5 (Drosophila arginine methyltransferase 1) (D. melanogaster) (enzyme)

binding [2]: binds
B1: Myc-Mre11 (Drosophila Mre11) (protein, UniProt Q9XYZ4 1-620)
chain: T1 sequence
